Assay results: article PMC10163288
Some of the results follow.

B1: il10ra_site1_sap_18_mot_HHH_b2_05343_000000235_0001_19_35_H_._HHH_b2_01840_0001_0000100007_0000001_0_0001 (protein)
chain: SSSSSSDLEEIFEEAERLAEERNNPAAAFLIRQAYKAIRLSGDPHARRNLEAFLRLLGSSSSSSS
B2: il10ra_site1_normal_mot_HHH_b2_03438_af2_000000049_0001_18_34_H_._HHH_b2_07194_0001_0000100001_0000001_0 (protein)
chain: SSSSSDEELEEEVERLLEEAERVDLEEAYELLREAAKLAHELNDEELSQLIQKVLRRILESSSSS
B3: il10ra_site1_normal_mot_HHH_b1_01731_af2_000000210_0001_41_56_H_._HHH_b1_07175_0001_0000300014_0000001_0_af2pred_0001 (protein)
chain: SSSSDKEELQFVLRVIRKLAKEFNLSDEQLRELAELALELLKQGVSPEEIEELLEKLAEELSSSS
B4: il10ra_site1_sap_21_mot_HHH_b1_03763_000000278_0001_22_38_H_._HHH_b1_05915_0001_0000800032_0000001_0_0001_af2pred_dldesign_0_af2pred (protein)
chain: SAEEEVENIIRYTAEAAGIPRVEVRVEDGRVTVTCEGSAEAHERVRLAAEAAGERIGWETVVTAR
B5: il10ra_site1_sap_27_mot_HHH_b1_03094_000000294_0001_1_20_H_._HHH_b1_03221_af2_0001_0000100004_0000001_0_0001_af2pred_dldesign_0_af2pred (protein)
chain: SSSSSEEEAERLKAELRAAIAAGDVEAAVALLRELTRLAWELGNSEVIQEIKELAKEILAVSSSS
B6: il10ra_site1_normal_mot_HHH_b2_00984_000000042_0001_1_20_H_._HHH_b1_04863_af2_0001_0000500015_0000001_0 (protein)
chain: SSSSSDEEEELEELLEQLKKALEENDRELVAQLARRLVQLAFRLSDPEALQEAWELIRLLSSSSS
B7: il10ra_site1_sap_16_mot_HHH_b2_00612_000000251_0001_1_14_H_._HHH_b2_07853_0001_0000200011_0000001_0_0001 (protein)
chain: SSSSSQEEVHLRALLFFAREALRAGDPHAARLMLEKAEELAEELGTPLVELVRELLEELNSSSSS
B8: il10ra_site1_sap_16_mot_HHH_b1_05357_000000034_0001_23_39_H_._HHH_b2_03504_0001_0000300018_0000001_0_0001 (protein)
chain: SSSSDEEEEELRELLERVEELLERGDPRRAARVAQELLRLIYQLSDEEALQKLWRLMKKYGSSSS
B9: il10ra_site1_normal_mot_HHH_b2_00612_000000251_0001_1_14_H_._HHH_b1_02085_0002_0000300016_0000002_0_af2pred_0001 (protein)
chain: SSSSDNAEFARKLAEEIQRLLEEGNEEEAEELLEEAKRILEELGDELTVRAIEYFFKAAKGSSSS
B10: il10ra_site1_sap_17_mot_HHH_b2_02537_000000065_0001_1_20_H_._HHH_b1_01889_0001_0000300022_0000002_0_0001 (protein)
chain: SEQLAELQLRSMGDPEMLKDAVRNIAELAQEGDPVARRAFEALEEVLRKLGDPELLEILEEVHER
B11: il10ra_site1_normal_mot_HHH_b1_00682_000000211_0001_1_20_H_._HHH_b2_01840_0001_0000300033_0000002_0_af2pred_dldesign_0_af2pred (protein)
chain: SSSSDVRAEIRRLLEEAKKLKEAGKPDEAYKLLKKAVELAGEVEDPELQQLVRDEARKLISSSSS
B12: il10ra_site1_normal_mot_e1dd4851c59bc1cdde016f988f6856bd_0001_1_000000200_0001_16_31_H_._HEEHE_2766_af2_0001_0000400024_0000001_0 (protein)
chain: DEAERVALAVERAARLAGVPSVTVEVHNGEVHVELEGTDQSVREAEIMAEFQARAANVKITIETK
B13: il10ra_site1_sap_15_mot_HHH_b2_03328_af2_000000127_0001_1_19_H_._HHH_b1_07969_0001_0000500014_0000001_0_0001 (protein)
chain: SSSSSLYEKVKKAIEELIELLRNGNPEEARELAEEMLREVEEAGNWAAWFSLRLLLEQINSSSSS
B14: il10ra_site1_sap_15_mot_HHH_b2_00230_000000227_0001_1_19_H_._HHH_b1_00399_0001_0000100015_0000001_0_0001_af2pred_0001 (protein)
chain: SSSSSSEEVERAARQLFRAIREISDEEKVKLALKDMRASAEFTNDPEIHELVRELEELFSSSSSS
B15: il10ra_site1_normal_mot_HHH_b2_08186_000000021_0001_43_56_H_._HHH_b1_08356_0001_0000100003_0000001_0 (protein)
chain: SSSSSEEEERIEELIEEIERLIEEGNPEEALELLLEALRLAFRANNPELLQELWELLQRLASSSS
B16: il10ra_site1_sap_24_mot_3af0db62db2b275566dae2e03bf881fa_0001_000000003_0001_37_50_H_._HHH_b1_08478_af2_0001_0000200007_0000002_0_0001 (protein)
chain: SSSSSSDVEEEVEELLEEAKQIDDDRELTRLLAEAVRLAFRANDPELLREVWRVIKELSSSSSSS
B17: il10ra_site1_sap_18_mot_HHH_b1_03763_000000209_0001_22_38_H_._HHH_b1_03243_0001_0000100003_0000002_0_0001_af2pred_0001 (protein)
chain: SSSSDDEKKVRLALRFAKRLEEDGDPEAARFILEAALEIAKRGGNPELEEEVQEILERLRSSSSS
B18: il10ra_site1_sap_17_mot_HHH_b1_04905_af2_000000228_0001_1_17_H_._d19391ccd5e4f9f9722e25c964c800ff_0001_af2_0001_0000500019_0000001_0_0001 (protein)
chain: SSSSSDEEEAEERVRELLEEAEHIEDREEVAELFKEALRIAIQVNDPELLQEVWEAFKRLSSSSS
B19: il10ra_site1_normal_mot_8756ee2cf497b5429c717dfc0c0bcfd6_0001_000000186_0001_1_13_H_._HHH_b1_05396_af2_0001_0000500018_0000002_0 (protein)
chain: SSSSDEHERAFELLREVAELHFEGDEEELEELLEEAEKIAQEANNDVILVQLEYLKRLLESSSSS
B20: il10ra_site1_sap_14_mot_HHH_b1_04592_af2_000000261_0001_39_52_H_._HHH_b2_04904_0001_0000200005_0000001_0_0001 (protein)
chain: SSSSDLEEKVEQTLRFVKWLIEVGDEKAAERFLRVAERLAKEAGDPELEERVEELERELKSSSSS
B21: il10ra_site1_sap_16_mot_HHH_b2_08144_af2_000000046_0001_38_52_H_._HHH_b2_08331_0001_0000200020_0000002_0_0001 (protein)
chain: SSSSNAAEYLVRQALRAARLAKENNDPELVKRALEIAERIAENANDPELKELVEEVEEELESSSS
B22: il10ra_site1_sap_25_mot_HHH_b1_03763_000000209_0001_22_38_H_._HHH_b2_07522_0001_0000500082_0000001_0_0001 (protein)
chain: SSSSSEREEVWELLKEALELRAEGNPEEAEKVLERAREIAEELGSQLFEIIIKMLQEAIEQSSSS
B23: il10ra_site1_sap_21_mot_HHH_b2_00984_000000042_0001_1_20_H_._HHH_b2_04376_0001_0000300040_0000001_0_0001 (protein)
chain: SSSSSDFEEVYELSREAVELDSDGNPEEARKVLEEAQEIAEELGDQLMRRQLEHLEKVVNSSSSS
B24: il10ra_site1_sap_29_mot_HHH_b2_02354_af2_000000157_0001_40_56_H_._ems_3hM_2942_af2_0001_0000100002_0000002_1_0001_af2pred_0001 (protein)
chain: SSSSTAEEDVRLAIAAAELALKAGDPEKARRALEIAKLIARQGNNPELEEELEELEEEINSSSSS
B25: il10ra_site1_sap_14_mot_HHH_b2_05207_000000229_0001_1_19_H_._HHH_b1_00008_af2_0001_0000200016_0000001_0_0001 (protein)
chain: SSSSDEEKEVALLVARASAKAARLGDHETERKLFELLVRAYAKNDPELFEEAEELAREILGSSSS
B26: il10ra_site1_sap_28_mot_HHH_b1_01513_af2_000000021_0001_1_16_H_._HHH_b1_03264_0001_0000300020_0000001_0_0001_af2pred_0001 (protein)
chain: SSSSDEEEKNLEAALRLAEQAYENGNPEHAKRLLRSALRLAERLNDEELFERLQELLEELSSSSS
B27: il10ra_site1_sap_26_mot_HHH_b1_03333_000000091_0001_1_17_H_._HHH_b2_04966_0001_0000200016_0000001_0_0001 (protein)
chain: SSSSSQEEELIEFNKKSLEQVLEYGNERIVRLLLEAIKLLAERTNDEELKEFVEQVERELSSSSS
B28: il10ra_site1_sap_14_mot_HHH_b1_02062_000000185_0001_1_20_H_._HHH_b2_07342_0001_0000400030_0000001_0_0001 (protein)
chain: SLMEAVWELAKKADSPELLELLALLIHAIFRGDEELVERVLELLEQAREEGDPRYLEEAEELLRK
B29: il10ra_site1_sap_16_mot_c338a8cd76c26928f5bff51e2e01ebb4_0001_000000083_0001_17_32_H_._HHH_b1_07556_af2_0001_0000300011_0000001_0_0001 (protein)
chain: SSSSSDLREAARRAQELIEELIQRGDQEALQELWRLFVELARTGDPELAEELREFLEEYSSSSSS
B30: il10ra_site1_normal_mot_HHH_b2_00475_000000107_0001_44_57_H_._HHH_b1_04179_0001_0000100010_0000001_0 (protein)
chain: SSSSDEEERRIIQLAFRATRLAARGNPEEARKVIEEAEELAKELGDEELEEYLRILKHFVNSSSS
B31: il10ra_site1_normal_mot_7f9b3cf633cfd27bca007b62ade1be3b_0001_1_000000138_0001_17_32_H_._HHH_b2_04541_0002_0000300021_0000001_0_af2pred_0001 (protein)
chain: SSSSDRERSLELLLRAAERLLEEGDEHRLRAVLREAKILAKILGDEEVLRRLEELEELLNSSSSS
B32: il10ra_site1_normal_mot_HHH_b1_04693_000000238_0001_19_36_H_._HHH_b1_03982_0001_0000100014_0000001_0 (protein)
chain: SSSSQEAYEIVERAIKEAIEALRNGNPEEAREIVEEAIRLIEELGNDSLVATLEVLLRLINSSSS
B33: il10ra_site1_sap_15_mot_HHH_b1_06816_000000239_0001_1_19_H_._HHH_b1_05776_af2_0001_0000100010_0000001_0_0001_af2pred_dldesign_0_af2pred (protein)
chain: SSSSSPIVEEAKKLFEEAKKLLEEGKPEEAQKKLEEIVELAKKHECIEVAKIANELLKLGSSSSS
B34: il10ra_site1_sap_19_mot_HHH_b1_07743_af2_000000164_0001_42_55_H_._HHH_b1_07378_af2_0001_0000500019_0000001_0_0001 (protein)
chain: SSSDEEYNERVVRLSLEAFHLALRGNPEEARRVLEEALELAEEGNNERLFEQIEDLLETLGSSSS
B35: il10ra_site1_normal_mot_HHH_b2_06767_000000020_0001_41_56_H_._HHH_b2_06012_0001_0000200016_0000002_0_af2pred_0001 (protein)
chain: SSSSSVHEAAQLLLRVARALKEGDEELLEELRKELEELLKKLDDERARLAVRAALAAIKNFSSSS
B36: il10ra_site1_sap_25_mot_HHH_b2_01235_000000294_0001_1_18_H_._HHH_b2_00232_0001_0000100011_0000001_0_0001_af2pred_dldesign_0_af2pred (protein)
chain: SSSSSDEEKRKEVEALLEEARTLTDGEAFKKALTKAIELAAELGDEELQQRILEVNRSYISSSSS
B37: il10ra_site1_sap_24_mot_HHH_b1_00999_000000080_0001_41_55_H_._HHH_b1_05694_af2_0001_0000300017_0000001_0_0001_af2pred_dldesign_0_af2pred (protein)
chain: SSSSDPQRVVELIHEANRLVDEGRLDEAERLLEEALRLARAADDAELAAAVEKALAFVRSLSSSS

What follows are binders tested against il10ra, Q13651 (assay: yeast display titration).

Apparent Kd, inactive:
B1 no binding seen
B2 no binding seen
B3 no binding seen
B4 no binding seen
B5 no binding seen
B6 no binding seen
B7 no binding seen
B8 no binding seen
B9 no binding seen
B10 no binding seen
B11 no binding seen
B12 no binding seen
B13 no binding seen
B14 no binding seen
B15 no binding seen
B16 no binding seen
B17 no binding seen
B18 no binding seen
B19 no binding seen
B20 no binding seen
B21 no binding seen
B22 no binding seen
B23 no binding seen
B24 > 1500 nM
B25 no binding seen
B26 no binding seen
B27 no binding seen
B28 no binding seen
B29 no binding seen
B30 no binding seen
B31 no binding seen
B32 no binding seen
B33 no binding seen
B34 no binding seen
B35 no binding seen
B36 no binding seen
B37 no binding seen

Retrieved one by one from above, 3 records:
Apparent Kd, inactive:
B24 > 1500 nM
B10 no binding seen
B34 no binding seen
